Assay results reported in PMC10626543.

The chains behind the UniProt entries cited, without tags or fusion partners. Residues count along the entry.
UniProt P48678, residues 1-647: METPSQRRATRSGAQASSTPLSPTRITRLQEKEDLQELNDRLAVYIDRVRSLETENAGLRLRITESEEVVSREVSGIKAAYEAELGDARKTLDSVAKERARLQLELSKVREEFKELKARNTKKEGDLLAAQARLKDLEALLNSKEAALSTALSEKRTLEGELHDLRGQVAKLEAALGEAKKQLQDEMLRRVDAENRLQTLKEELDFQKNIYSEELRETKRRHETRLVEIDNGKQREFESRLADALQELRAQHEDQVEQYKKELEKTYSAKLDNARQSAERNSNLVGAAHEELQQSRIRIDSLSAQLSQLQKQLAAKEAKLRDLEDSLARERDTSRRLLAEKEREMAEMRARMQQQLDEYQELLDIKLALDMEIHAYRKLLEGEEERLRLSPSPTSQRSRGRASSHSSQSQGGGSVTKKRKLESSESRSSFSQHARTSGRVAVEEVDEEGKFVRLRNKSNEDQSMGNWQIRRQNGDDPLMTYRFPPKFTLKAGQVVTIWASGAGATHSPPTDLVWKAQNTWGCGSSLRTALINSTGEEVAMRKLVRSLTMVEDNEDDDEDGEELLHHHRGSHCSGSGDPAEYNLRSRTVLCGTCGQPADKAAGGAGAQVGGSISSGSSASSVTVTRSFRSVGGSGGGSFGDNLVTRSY
UniProt O08539: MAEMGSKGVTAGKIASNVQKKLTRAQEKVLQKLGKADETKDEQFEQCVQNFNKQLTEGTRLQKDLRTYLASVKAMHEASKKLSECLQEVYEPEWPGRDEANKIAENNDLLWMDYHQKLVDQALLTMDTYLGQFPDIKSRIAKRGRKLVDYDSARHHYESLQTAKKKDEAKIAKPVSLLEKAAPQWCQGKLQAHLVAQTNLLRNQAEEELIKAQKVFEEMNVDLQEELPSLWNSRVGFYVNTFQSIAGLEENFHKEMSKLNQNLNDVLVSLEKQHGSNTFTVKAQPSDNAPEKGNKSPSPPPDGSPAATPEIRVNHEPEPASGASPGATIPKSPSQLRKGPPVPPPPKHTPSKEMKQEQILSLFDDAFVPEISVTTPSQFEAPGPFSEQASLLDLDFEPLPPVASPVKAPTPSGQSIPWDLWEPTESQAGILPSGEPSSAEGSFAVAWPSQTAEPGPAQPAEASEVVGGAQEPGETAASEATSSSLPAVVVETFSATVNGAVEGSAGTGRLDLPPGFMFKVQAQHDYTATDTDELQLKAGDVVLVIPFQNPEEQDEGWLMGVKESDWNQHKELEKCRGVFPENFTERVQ
UniProt Q60823: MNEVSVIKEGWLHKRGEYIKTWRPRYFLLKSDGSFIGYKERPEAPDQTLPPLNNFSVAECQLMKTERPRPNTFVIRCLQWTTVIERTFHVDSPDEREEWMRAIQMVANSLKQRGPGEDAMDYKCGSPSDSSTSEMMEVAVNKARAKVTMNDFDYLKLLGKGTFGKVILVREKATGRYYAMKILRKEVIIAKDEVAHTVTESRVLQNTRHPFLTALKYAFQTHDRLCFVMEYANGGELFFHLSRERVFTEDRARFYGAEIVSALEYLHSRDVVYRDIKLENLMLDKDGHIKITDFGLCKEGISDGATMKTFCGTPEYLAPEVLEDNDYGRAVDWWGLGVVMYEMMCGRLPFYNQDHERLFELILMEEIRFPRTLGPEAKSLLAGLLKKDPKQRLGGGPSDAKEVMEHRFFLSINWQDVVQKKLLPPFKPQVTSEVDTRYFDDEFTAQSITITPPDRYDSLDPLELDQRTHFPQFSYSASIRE
UniProt Q3TJD7: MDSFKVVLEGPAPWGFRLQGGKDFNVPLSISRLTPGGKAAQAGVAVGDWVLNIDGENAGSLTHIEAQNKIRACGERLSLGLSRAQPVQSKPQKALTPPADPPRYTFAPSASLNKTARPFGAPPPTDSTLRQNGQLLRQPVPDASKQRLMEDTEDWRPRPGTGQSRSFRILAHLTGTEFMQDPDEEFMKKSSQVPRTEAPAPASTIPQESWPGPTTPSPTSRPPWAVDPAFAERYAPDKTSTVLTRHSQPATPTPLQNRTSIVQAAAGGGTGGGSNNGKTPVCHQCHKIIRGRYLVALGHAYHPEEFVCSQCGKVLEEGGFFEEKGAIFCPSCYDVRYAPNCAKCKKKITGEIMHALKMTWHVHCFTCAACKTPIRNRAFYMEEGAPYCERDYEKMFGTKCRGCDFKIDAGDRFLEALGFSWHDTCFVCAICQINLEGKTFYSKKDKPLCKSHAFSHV
UniProt P62715: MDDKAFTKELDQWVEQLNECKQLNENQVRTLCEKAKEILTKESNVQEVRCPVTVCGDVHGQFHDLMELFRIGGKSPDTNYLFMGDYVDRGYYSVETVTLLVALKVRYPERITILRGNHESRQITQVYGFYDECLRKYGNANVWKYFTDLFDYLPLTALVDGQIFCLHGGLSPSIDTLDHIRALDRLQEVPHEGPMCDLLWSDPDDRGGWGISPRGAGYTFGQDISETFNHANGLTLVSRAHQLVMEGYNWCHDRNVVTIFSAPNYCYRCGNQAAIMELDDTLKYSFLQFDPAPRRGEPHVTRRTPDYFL
UniProt Q8BG36: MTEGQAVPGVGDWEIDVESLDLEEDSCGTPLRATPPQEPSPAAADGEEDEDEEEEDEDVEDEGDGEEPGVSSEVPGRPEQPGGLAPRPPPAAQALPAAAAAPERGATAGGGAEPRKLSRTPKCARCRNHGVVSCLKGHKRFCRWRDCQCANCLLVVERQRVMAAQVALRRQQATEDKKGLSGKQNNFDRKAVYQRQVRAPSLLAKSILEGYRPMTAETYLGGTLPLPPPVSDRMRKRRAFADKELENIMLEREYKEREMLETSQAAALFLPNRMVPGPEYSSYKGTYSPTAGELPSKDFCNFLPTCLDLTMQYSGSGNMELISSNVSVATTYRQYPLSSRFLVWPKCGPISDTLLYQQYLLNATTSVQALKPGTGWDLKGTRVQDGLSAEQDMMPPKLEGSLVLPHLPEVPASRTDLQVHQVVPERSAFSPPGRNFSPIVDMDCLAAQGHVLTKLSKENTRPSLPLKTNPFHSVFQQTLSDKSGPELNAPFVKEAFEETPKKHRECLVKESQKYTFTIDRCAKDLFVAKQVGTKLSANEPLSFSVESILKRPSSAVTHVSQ
UniProt P26883: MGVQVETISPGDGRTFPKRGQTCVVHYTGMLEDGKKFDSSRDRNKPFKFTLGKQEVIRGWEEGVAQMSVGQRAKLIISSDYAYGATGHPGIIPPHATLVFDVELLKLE
UniProt Q7TT45: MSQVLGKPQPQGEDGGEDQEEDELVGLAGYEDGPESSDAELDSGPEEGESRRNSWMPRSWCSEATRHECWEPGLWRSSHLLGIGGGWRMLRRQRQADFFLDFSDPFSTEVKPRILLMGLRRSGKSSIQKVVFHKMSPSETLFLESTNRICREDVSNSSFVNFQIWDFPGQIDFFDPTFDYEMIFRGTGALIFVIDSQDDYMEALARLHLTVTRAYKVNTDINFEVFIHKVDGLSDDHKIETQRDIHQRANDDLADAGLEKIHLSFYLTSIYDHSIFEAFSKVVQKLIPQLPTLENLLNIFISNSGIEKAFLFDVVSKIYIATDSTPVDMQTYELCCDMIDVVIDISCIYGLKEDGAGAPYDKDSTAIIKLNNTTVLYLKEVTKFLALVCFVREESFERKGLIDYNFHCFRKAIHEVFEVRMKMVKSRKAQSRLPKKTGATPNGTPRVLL
UniProt Q9JJG0: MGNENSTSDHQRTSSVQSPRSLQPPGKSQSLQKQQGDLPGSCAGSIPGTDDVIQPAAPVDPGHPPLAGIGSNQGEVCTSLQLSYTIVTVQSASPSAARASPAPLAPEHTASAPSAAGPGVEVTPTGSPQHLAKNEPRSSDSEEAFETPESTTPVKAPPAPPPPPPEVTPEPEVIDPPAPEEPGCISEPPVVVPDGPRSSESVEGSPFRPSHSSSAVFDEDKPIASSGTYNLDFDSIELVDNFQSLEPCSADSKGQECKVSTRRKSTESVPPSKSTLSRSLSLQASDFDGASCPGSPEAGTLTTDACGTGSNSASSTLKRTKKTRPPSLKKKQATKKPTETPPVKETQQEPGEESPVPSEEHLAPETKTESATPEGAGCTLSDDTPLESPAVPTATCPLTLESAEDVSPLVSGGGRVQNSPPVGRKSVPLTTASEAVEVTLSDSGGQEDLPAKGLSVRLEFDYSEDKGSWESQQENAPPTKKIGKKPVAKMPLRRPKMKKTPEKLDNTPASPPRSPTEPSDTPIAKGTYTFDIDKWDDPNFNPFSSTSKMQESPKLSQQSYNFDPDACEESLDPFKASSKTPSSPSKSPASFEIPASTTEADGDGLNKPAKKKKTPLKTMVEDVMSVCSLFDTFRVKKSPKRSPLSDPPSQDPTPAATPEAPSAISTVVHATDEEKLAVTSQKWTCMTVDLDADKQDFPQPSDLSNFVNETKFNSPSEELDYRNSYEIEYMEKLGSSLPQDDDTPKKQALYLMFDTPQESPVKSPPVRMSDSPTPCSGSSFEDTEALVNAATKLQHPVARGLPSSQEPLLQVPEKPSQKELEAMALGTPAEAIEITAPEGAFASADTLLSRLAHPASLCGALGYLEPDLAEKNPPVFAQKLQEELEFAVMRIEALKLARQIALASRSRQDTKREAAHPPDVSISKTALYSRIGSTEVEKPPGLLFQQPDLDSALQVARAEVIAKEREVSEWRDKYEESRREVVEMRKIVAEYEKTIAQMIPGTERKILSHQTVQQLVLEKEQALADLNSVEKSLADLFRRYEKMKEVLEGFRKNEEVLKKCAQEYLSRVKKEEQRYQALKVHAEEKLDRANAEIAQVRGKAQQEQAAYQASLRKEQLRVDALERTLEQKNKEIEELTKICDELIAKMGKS
UniProt Q8K310: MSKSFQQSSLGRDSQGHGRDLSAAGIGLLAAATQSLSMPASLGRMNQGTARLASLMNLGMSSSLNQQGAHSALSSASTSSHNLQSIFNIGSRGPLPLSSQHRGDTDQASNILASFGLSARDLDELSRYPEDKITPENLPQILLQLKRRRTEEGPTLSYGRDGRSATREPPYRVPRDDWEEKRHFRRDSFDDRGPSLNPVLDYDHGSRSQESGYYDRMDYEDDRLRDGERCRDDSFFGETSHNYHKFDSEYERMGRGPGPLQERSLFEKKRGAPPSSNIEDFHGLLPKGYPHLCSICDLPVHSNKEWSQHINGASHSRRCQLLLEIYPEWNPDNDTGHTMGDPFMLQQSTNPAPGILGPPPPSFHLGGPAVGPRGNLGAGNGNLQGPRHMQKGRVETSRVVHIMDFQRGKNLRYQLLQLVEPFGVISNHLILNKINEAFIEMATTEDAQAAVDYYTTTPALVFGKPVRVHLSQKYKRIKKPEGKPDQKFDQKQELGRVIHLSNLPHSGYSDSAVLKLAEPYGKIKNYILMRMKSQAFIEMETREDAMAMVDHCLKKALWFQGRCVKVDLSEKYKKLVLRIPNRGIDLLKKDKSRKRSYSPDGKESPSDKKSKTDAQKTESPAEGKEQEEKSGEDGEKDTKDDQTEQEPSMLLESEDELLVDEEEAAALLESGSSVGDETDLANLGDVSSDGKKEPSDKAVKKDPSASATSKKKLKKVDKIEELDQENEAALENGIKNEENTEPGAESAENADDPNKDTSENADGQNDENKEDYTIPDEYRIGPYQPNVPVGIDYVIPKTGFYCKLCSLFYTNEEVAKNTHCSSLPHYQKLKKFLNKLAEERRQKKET
UniProt P51859: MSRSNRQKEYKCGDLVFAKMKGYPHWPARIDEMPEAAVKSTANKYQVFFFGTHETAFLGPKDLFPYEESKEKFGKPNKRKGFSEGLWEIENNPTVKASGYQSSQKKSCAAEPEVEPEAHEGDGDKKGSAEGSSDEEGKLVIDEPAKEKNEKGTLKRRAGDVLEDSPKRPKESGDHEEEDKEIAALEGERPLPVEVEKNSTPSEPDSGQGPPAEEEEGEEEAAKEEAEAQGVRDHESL
UniProt P50462: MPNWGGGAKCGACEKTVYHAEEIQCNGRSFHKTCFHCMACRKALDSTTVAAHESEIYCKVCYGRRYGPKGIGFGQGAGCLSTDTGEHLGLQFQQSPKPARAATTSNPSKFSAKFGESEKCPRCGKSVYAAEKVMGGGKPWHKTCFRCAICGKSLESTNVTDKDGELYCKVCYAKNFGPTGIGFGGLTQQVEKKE
UniProt Q921F2: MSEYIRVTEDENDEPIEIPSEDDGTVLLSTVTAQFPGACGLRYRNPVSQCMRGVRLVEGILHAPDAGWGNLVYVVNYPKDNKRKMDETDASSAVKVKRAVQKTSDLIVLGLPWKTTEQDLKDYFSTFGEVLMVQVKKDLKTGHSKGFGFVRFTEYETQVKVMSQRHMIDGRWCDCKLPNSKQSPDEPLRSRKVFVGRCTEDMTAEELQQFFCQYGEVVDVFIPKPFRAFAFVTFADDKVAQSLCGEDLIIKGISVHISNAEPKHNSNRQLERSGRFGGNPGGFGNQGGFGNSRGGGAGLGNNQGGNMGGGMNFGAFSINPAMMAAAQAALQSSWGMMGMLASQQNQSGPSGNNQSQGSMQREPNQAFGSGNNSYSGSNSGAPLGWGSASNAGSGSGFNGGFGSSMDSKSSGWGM

Key:
[1] = target: native lamin A/C (mouse (endogenous in heart, skeletal muscle and brain)) (UniProt P48678); assay: affinity purification with mass spectrometry; native lamin A/C immunoprecipitated with mAb 4C11 and Protein G Sepharose from sonicated heart lysates of old IL10-KO and control C57Bl/6 female mice (five each); 50 mM Tris pH 7.4, 300 mM NaCl, 0.3% Triton X-100, 4°C; TMT 10-plex
[2] = target: native lamin A/C (mouse (endogenous in heart, skeletal muscle and brain)) (UniProt P48678); assay: affinity purification with mass spectrometry; native lamin A/C immunoprecipitated with mAb 4C11 and Protein G Sepharose from sonicated skeletal muscle lysates of old IL10-KO and control C57Bl/6 female mice (five each); 50 mM Tris pH 7.4, 300 mM NaCl, 0.3% Triton X-100, 4°C; TMT 10-plex

Row | binding [1] | binding [2] | Substance
1 | binds |  | E3 SUMO-protein ligase PIAS2 (from UniProt Q8C5D8 1-621)
2 |  | binds | Camk2g (from UniProt Q923T9 1-529)
3 |  | binds | Ankyrin repeat domain-containing protein 2 (from UniProt Q9WV06 1-328)
4 | binds | binds | PR domain zinc finger protein 2 (from UniProt A2A7B5 1-1709)
5 |  | binds | Camk2a (from UniProt P11798 1-478)
6 | binds |  | ETS translocation variant 3-like protein (from UniProt A0A5F8MPE2 1-356)
7 |  | binds | Myc box-dependent-interacting protein 1 (from UniProt O08539 1-588)
8 |  | binds | Smoothelin (from UniProt Q921U8 1-923)
9 |  | binds | Condensin complex subunit 2 (from UniProt Q8C156 1-731)
10 |  | binds | Ryanodine receptor 1 (from UniProt E9PZQ0 1-5035)
11 |  | binds | Akt2 (from UniProt Q60823 1-481)
12 |  | binds | Smc3 (structural maintenance of chromosomes protein 3) (from UniProt Q9CW03 1-1217)
13 | binds |  | TATA-binding protein-associated factor 2N (from UniProt Q8BQ46 1-557)
14 |  | binds | PDZ and LIM domain protein 7 (from UniProt Q3TJD7 1-457)
15 |  | binds | Acidic leu-rich nuclear phosphop’n 32 family member A (from UniProt O35381 1-247)
16 | binds |  | Moesin (from UniProt P26041 1-577)
17 |  | binds | Prkag1 (from UniProt O54950 1-330)
18 |  | binds | protein phosphatase 2 (Ppp2cb) (from UniProt P62715 1-309)
19 |  | binds | Prkar2a (from UniProt P12367 1-401)
20 |  | binds | Doublesex- and mab-3-related transcription factor 2 (from UniProt Q8BG36 1-561)
21 |  | binds | Numa1 (from UniProt E9Q7G0 1-2094)

The remaining lines, values behind:

Row | Substance | binding [1] | binding [2]
22 | Peptidyl-prolyl cis-trans isomerase FKBP1A (from UniProt P26883 1-108) |  | binds
23 | Ras-related GTP-binding protein D (from UniProt Q7TT45 1-449) |  | binds
24 | Protein FAM114A2 (from UniProt Q8VE88 1-497) |  | binds
25 | Fxr1 (Fragile X syndrome-related protein 1) (from UniProt Q61584 1-677) |  | binds
26 | Transforming acidic coiled-coil-containing protein 2 (from UniProt Q9JJG0 1-1149) |  | binds
27 | Alpha-protein kinase 3 (from UniProt Q924C5 1-1680) |  | binds
28 | Heterogeneous nuclear ribonucleoprotein U (from UniProt Q8VEK3 1-800) |  | binds
29 | BAG family molecular chaperone regulator 3 (from UniProt Q9JLV1 1-577) | binds | 
30 | Heterogeneous nuclear ribonucleoproteins A2/B1 (from UniProt O88569 1-353) | binds | 
31 | Matrin 3 (from UniProt Q8K310 1-846) |  | binds
32 | Signal transducer and activator of transcription 5B (from UniProt P42232 1-786) |  | binds
33 | Striated muscle-specific serine/threonine-protein kinase (from UniProt Q62407 1-3262) | binds | 
34 | Hepatoma-derived growth factor (from UniProt P51859 1-237) |  | binds
35 | NAMPT (from UniProt Q99KQ4 1-491) | binds | binds
36 | Ppp1cc (from UniProt P63087 1-323) |  | binds
37 | DnaJ homolog subfamily B member 4 (from UniProt Q9D832 1-337) |  | binds
38 | Prkaa2 (from UniProt Q8BRK8 1-552) |  | binds
39 | Leucine-rich repeat flightless-interacting protein 2 (from UniProt Q91WK0 1-415) | binds | 
40 | Pcbp1 (poly(rC)-binding protein, aka HnrnpE1) (from UniProt P60335 1-356) |  | binds
41 | Ser/Thr-protein phosphatase 2A catalytic subunit alpha (from UniProt P63330 1-309) | binds | 
42 | 14-3-3 epsilon (Ywhae) (from UniProt P62259 1-255) |  | binds
43 | Heterogeneous nuclear ribonucleoproteins C (C1/C2) (from UniProt Q9Z204 1-313) | binds | 
44 | Cysteine and glycine-rich protein 3 (aka MLP), mouse (from UniProt P50462 1-194) | binds | binds
45 | TAR DNA-binding protein 43 (from UniProt Q921F2 1-414) |  | binds

Results are given in words; binding and its absence hold for the method and conditions named. Binding seen in cells or lysates may run through a third protein. A yes stands for co-enrichment or nearness to the bait. Other partners may have been found.
